Source: PubChem BioAssay AID330 (DTP/NCI, 2004)
The list does not hold the whole screen: it is rich in T/C values a quarter to a half above the control, in often repeated tests (any T/C) and in doses without a T/C. Further doses and runs are listed elsewhere. T/C: endpoint of the treated group in % of that of the vehicle group. Some entries give survivors of the animals treated and no T/C: the source holds a T/C of zero for them, seemingly a mark for toxic or unscored doses. Some survivor counts are full or nearly so, which does not show that the dose was tolerated: survival well below the control is almost never listed, so the zero probably covers shortened survival too. Counts of survivors are from the toxicity check (mostly the fifth day) where no day follows; animals may have died later. Schedules are NCI's codes, taken here to give the interval after Q, in days (D) or hours (H), and the number of doses after X. Some entries were tested several times; their values stand side by side, smallest first. Where survival is the endpoint, the PubChem record calls one and a half times the control and up active, and a quarter to a half above the control has no call in these data; cut-offs in other NCI protocols can differ. Some T/C values carry the count of animals alive at the toxicity check (mostly the fifth day); where none is given, no animal had died by that day.

System: P388 leukemia ip, CD2F1 mice, survival T/C
Assay: NCI In Vivo Anticancer Drug Screen. Data for tumor model P388 Leukemia (intraperitoneal) in CD2F1 (CDF1) mice
Conditions: T/C endpoint: median survival time, higher T/C = longer survival
[1] = dose: 200.0 mg/kg/injection, schedule: Q01DX005 (ip), vehicle: Klucel (hydroxypropylcellulose) (HPC)
[2] = dose: 200.0 mg/kg/injection, schedule: Q01DX005 (ip), vehicle: saline with Tween-80
[3] = dose: 200.0 mg/kg/injection, schedule: Q01DX009 (ip), vehicle: Klucel (hydroxypropylcellulose) (HPC)
[4] = dose: 100.0 mg/kg/injection, schedule: Q01DX009 (ip), vehicle: saline with Tween-80

O=C(CCN1CC1)Nc1ccc(NC(=O)CCN2CC2)cc1
T/C (dose: 2.5 mg/kg/injection, schedule: Q04DX003 (ip), vehicle: Klucel (hydroxypropylcellulose) (HPC)): 141 % of control
T/C (dose: 5.0 mg/kg/injection, schedule: Q04DX003 (ip), vehicle: Klucel (hydroxypropylcellulose) (HPC)): 141 % of control
survivor count (dose: 40.0 mg/kg/injection, schedule: Q04DX003 (ip), vehicle: Klucel (hydroxypropylcellulose) (HPC)): 2 of 6

CCOC(=O)CSc1cc(O)c2ccccc2c1N=Nc1ccc(C(=O)O)cc1
survivor count (dose: 50.0 mg/kg/injection, schedule: Q01DX005 (ip), vehicle: saline with Tween-80): 6 of 6

CCOc1ccc(N=Nc2c(C)nn(C(=S)S)c2OCC)cc1
survivor count (dose: 60.0 mg/kg/injection, schedule: Q01DX005 (ip), vehicle: Klucel (hydroxypropylcellulose) (HPC)): 0 of 6
survivor count (dose: 120.0 mg/kg/injection, schedule: Q01DX005 (ip), vehicle: Klucel (hydroxypropylcellulose) (HPC)): 0 of 6
survivor count (dose: 240.0 mg/kg/injection, schedule: Q01DX005 (ip), vehicle: Klucel (hydroxypropylcellulose) (HPC)): 0 of 6

Nc1nnn(/N=C\c2ccccc2)n1
survivor count [1]: 5 of 5

O=c1c2cc3c(=O)n(CC[P+](c4ccccc4)(c4ccccc4)c4ccccc4)c(=O)c3cc2c(=O)n1CC[P+](c1ccccc1)(c1ccccc1)c1ccccc1
survivor count (dose: 6.25 mg/kg/injection, schedule: Q01DX009 (ip), vehicle: water): 3 of 6
survivor count (dose: 12.5 mg/kg/injection, schedule: Q01DX009 (ip), vehicle: water): 0 of 6
survivor count (dose: 25.0 mg/kg/injection, schedule: Q01DX009 (ip), vehicle: water): 0 of 6

O=S1(=O)CC(Cl)(Cl)C1
survivor count [2]: 3 of 6

c1cc[n+](CCC[n+]2ccccc2)cc1
survivor count (dose: 400.0 mg/kg/injection, schedule: Q01DX009 (ip), vehicle: saline): 1 of 6

Nc1nc(Sc2ccc([N+](=O)[O-])c3nonc23)c2[nH]cnc2n1
survivor count (dose: 50.0 mg/kg/injection, schedule: Q01DX009 (ip), vehicle: Klucel (hydroxypropylcellulose) (HPC)): 5 of 6
survivor count (dose: 100.0 mg/kg/injection, schedule: Q01DX009 (ip), vehicle: Klucel (hydroxypropylcellulose) (HPC)): 1 of 6
survivor count [3]: 0 of 6

NNc1ncnc2c1ncn2C1OC(CO)C(O)C1O (centres undefined)
T/C (dose: 66.0 mg/kg/injection, schedule: Q01DX009 (ip), vehicle: saline with Tween-80): 145 % of control
T/C [4]: 145 % of control
survivor count [4]: 6 of 6
survivor count (dose: 150.0 mg/kg/injection, schedule: Q01DX009 (ip), vehicle: saline with Tween-80): 3 of 6 and 5 of 6
survivor count (dose: 200.0 mg/kg/injection, schedule: Q01DX009 (ip), vehicle: saline with Tween-80): 2 of 6
survivor count (dose: 400.0 mg/kg/injection, schedule: Q04DX003 (ip), vehicle: saline): 0 of 6

Cc1ccccc1C(=O)Nc1ccccc1-c1ccccc1
survivor count (dose: 100.0 mg/kg/injection, schedule: Q01DX009 (ip), vehicle: saline): 5 of 6

C[C@]12CC[C@H](O)C[C@@H]1CC[C@@H]1[C@@H]2C(=O)C[C@@]2(C)[C@H]1CC[C@]2(O)C(=O)CBr
T/C (dose: 100.0 mg/kg/injection, schedule: Q04DX003 (ip), vehicle: saline with Tween-80): 140 % of control
T/C (dose: 200.0 mg/kg/injection, schedule: Q04DX003 (ip), vehicle: saline with Tween-80): 140 % of control
T/C (dose: 400.0 mg/kg/injection, schedule: Q04DX003 (ip), vehicle: saline with Tween-80): 140 % of control

COCCO[Si](OCCOC)(OCCOC)OCCOC
survivor count [3]: 3 of 6

NC(=O)c1c(N)nn2c(-c3ccccc3)cc(-c3ccccc3)cc12
survivor count (dose: 200.0 mg/kg/injection, schedule: Q01DX001 (ip), vehicle: Klucel (hydroxypropylcellulose) (HPC)): 6 of 6

[Co].c1c[nH]cn1.c1c[nH]cn1.c1c[nH]cn1.c1c[nH]cn1.c1c[nH]cn1.c1c[nH]cn1
survivor count (dose: 100.0 mg/kg/injection, schedule: Q01DX005 (ip), vehicle: saline with Tween-80): 5 of 6
survivor count [2]: 0 of 6

CCNCCNc1cc(O)c2c(c1O)C(=O)c1ccccc1C2=O
T/C [1]: 128 % of control [4 of 6 alive]

CCCCN1COCO[C@H]2CCC[C@@H]21
survivor count (dose: 400.0 mg/kg/injection, schedule: Q04DX002 (ip), vehicle: Klucel (hydroxypropylcellulose) (HPC)): 1 of 6

CO[C@H]1/C=C/O[C@@]2(C)Oc3c(C)c(O)c4c(O)c(c(/C=N/N5C(C)CN(Cc6ccccc6)CC5C)c(O)c4c3C2=O)NC(=O)/C(C)=C\C=C\[C@H](C)[C@H](O)[C@@H](C)[C@@H](O)[C@@H](C)[C@H](OC(C)=O)[C@@H]1C (some centres undefined)
survivor count (dose: 50.0 mg/kg/injection, schedule: Q01DX009 (ip), vehicle: saline sonified): 6 of 6

COCN(CCc1ccccc1)CCN(C)C
survivor count (dose: 200.0 mg/kg/injection, schedule: Q01DX009 (ip), vehicle: saline): 2 of 6
